Counter-ions that a name gives are not always drawn. The list shows a part of the results. Repeats in this data set agree poorly, so a single value says little.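 In a drug-repurposing library screen, luminescence reads luciferase driven by eight TEAD-binding elements, stably integrated into human kidney-derived cells. Compounds scoring over five robust Z scores above the plate mean are called hits.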

For the test, the system named is HEK293A TEAD-LUC reporter. Description: TEAD-luciferase reporter activity (YAP activation), robust Z score vs plate; higher = stronger YAP/TEAD activation. To be noted: 24 h. In general terms: In a reporter assay the amount or activity of a reporter protein is the signal.

In the case of `COc1cc2c(c3c1c(=O)c1ccccc1n3C)C=CC(C)(C)O2` [acronycine], the TEAD-luciferase reporter activity is inactive: -0.00668 (compound concentration: 200 nM), inactive: 1.79 (compound concentration: 2 uM) and inactive: 0.202 (compound concentration: 10 uM).

`CC(C)(C)[C@H](NC(=O)[C@@H](NC(=O)c1cnccn1)C1CCCCC1)C(=O)O`: the TEAD-luciferase reporter activity by setting is: (compound concentration: 200 nM) inactive: -0.275; (compound concentration: 2 uM) inactive: -0.747; (compound concentration: 10 uM) inactive: 0.566.

Turning to `Cc1ccc([N+](=O)[O-])c(NC(C(N)=O)c2ccccc2Cl)c1` (centres undefined), under “compound concentration: 2 uM”, the TEAD-luciferase reporter activity is inactive: 2.76.

In the case of `O=C(O)CC/C=C\CC[C@@H]1[C@@H](N2CCCCC2)[C@@H](O)C[C@@H]1OCc1ccc(-c2ccccc2)cc1` [Vapiprost hydrochloride], the TEAD-luciferase reporter activity is inactive: -1.03 (compound concentration: 200 nM), inactive: -1.26 (compound concentration: 2 uM) and inactive: 1.36 (compound concentration: 10 uM).

Turning to `Cn1cc(C2=C(c3c4n(c5ccccc35)CCC(CN)C4)C(=O)NC2=O)c2ccccc21` (centres undefined), the TEAD-luciferase reporter activity reads like this: (compound concentration: 200 nM) inactive: 1.97; (compound concentration: 2 uM) inactive: -0.944; (compound concentration: 10 uM) inactive: -2.17.

For `CCOC(=O)c1ccc(NC(=O)C2=C(C)OCCS2)cc1`, the TEAD-luciferase reporter activity is, setting by setting: (compound concentration: 200 nM) inactive: -1.62; (compound concentration: 2 uM) inactive: 0.382; (compound concentration: 10 uM) inactive: 0.433.

For `CC1=C(C(=O)O)N2C(=O)[C@@H](NC(=O)C(N)c3ccc4c(c3)OCO4)[C@H]2SC1` (some centres undefined), the TEAD-luciferase reporter activity reads like this: (compound concentration: 200 nM) inactive: 0.199; (compound concentration: 2 uM) inactive: -0.624; (compound concentration: 10 uM) inactive: 0.99.

Regarding `CCCc1ccc(OCC(C)O)c2c(=O)cc(C(=O)O)oc12` (centres undefined), the TEAD-luciferase reporter activity was inactive: -1.87 (compound concentration: 200 nM), inactive: -0.844 (compound concentration: 2 uM) and inactive: 0.189 (compound concentration: 10 uM).

`Cc1ccc(C(=O)N(CCCN)C(=C2Nc3cc(Cl)ccc3C(=O)N2Cc2ccccc2)C(C)C)cc1` [ispinesib mesylate]: the TEAD-luciferase reporter activity is, setting by setting: (compound concentration: 200 nM) inactive: -0.242; (compound concentration: 2 uM) inactive: -2.86; (compound concentration: 10 uM) inactive: 3.71.

Take `C[C@]1(c2nc3c(C(N)=O)cccc3[nH]2)CCCN1` [ABT-888 (Veliparib)]: the TEAD-luciferase reporter activity by setting is: (compound concentration: 200 nM) inactive: -0.733; (compound concentration: 10 uM) inactive: -0.385.

As for `C[C@]1(c2nc3c(C(N)=O)cccc3[nH]2)CCCN1`, the TEAD-luciferase reporter activity (compound concentration: 2 uM) was inactive: -0.549.

Turning to `CN1c2c(oc(=O)n(-c3ccccn3)c2=O)-c2ccccc2S1(=O)=O` [droxicam], the TEAD-luciferase reporter activity is inactive: 2.27 (compound concentration: 200 nM), inactive: -1.25 (compound concentration: 2 uM) and inactive: 3.22 (compound concentration: 10 uM).

Consider `Nc1nnc(-c2cccc(Cl)c2Cl)c(N)n1` [lamotrigine orally disintegrating tablet], for which the TEAD-luciferase reporter activity (compound concentration: 2 uM) is inactive: -1.6.

Take `Nc1nnc(-c2cccc(Cl)c2Cl)c(N)n1` [lamotrigine]: the TEAD-luciferase reporter activity by setting is: (compound concentration: 200 nM) inactive: 1.32; (compound concentration: 10 uM) inactive: -0.854.

Turning to `COC(=O)CCc1ccc(OCC(O)CNC(C)C)cc1` (centres undefined), the TEAD-luciferase reporter activity by setting is: (compound concentration: 200 nM) inactive: 0.315; (compound concentration: 10 uM) inactive: -0.487.

Regarding `COC(=O)CCc1ccc(OCC(O)CNC(C)C)cc1` (centres undefined) [esmolol hydrochloride], where the note is “compound concentration: 2 uM”, the TEAD-luciferase reporter activity was inactive: -0.369.

In the case of `COc1cc(OC)cc(C(=O)N2CCN(CCc3ccc(Cl)cc3)CC2)c1`, the TEAD-luciferase reporter activity (compound concentration: 200 nM) was inactive: 0.804, the TEAD-luciferase reporter activity (compound concentration: 2 uM) was inactive: -0.0338 and the TEAD-luciferase reporter activity (compound concentration: 10 uM) is inactive: 0.361.

In the case of `O=C1CCC(N2C(=O)C3CCCC3C2=O)C(=O)N1` (centres undefined), the TEAD-luciferase reporter activity runs as follows: (compound concentration: 200 nM) inactive: 1.4; (compound concentration: 2 uM) inactive: -0.241; (compound concentration: 10 uM) inactive: -1.26.

On to `O=C1c2ccccc2C(=O)c2c1cn1c2Cc2ccccc2C1` [Mitoquidone], for which the TEAD-luciferase reporter activity runs as follows: (compound concentration: 200 nM) inactive: -0.839; (compound concentration: 2 uM) inactive: -0.997; (compound concentration: 10 uM) inactive: 1.4.

As to `CCN(CC)CCOc1ccc(/C(=C(/Cl)c2ccccc2)c2ccccc2)cc1` [enclomiphene citrate], the TEAD-luciferase reporter activity reads like this: (compound concentration: 200 nM) inactive: -1.17; (compound concentration: 2 uM) inactive: -1.12; (compound concentration: 10 uM) inactive: 0.957.

As to `O=C1CN(S(=O)(=O)c2oc3ccccc3c2Br)C(=O)N1`, the TEAD-luciferase reporter activity is inactive: -0.807 (compound concentration: 200 nM), inactive: 0.982 (compound concentration: 2 uM) and inactive: 0.976 (compound concentration: 10 uM).

For the compound `Cc1ccc(-c2cc(C(F)(F)F)nn2-c2ccc(S(N)(=O)=O)cc2)cc1`, the TEAD-luciferase reporter activity is inactive: -1.12 (compound concentration: 200 nM) and inactive: 2.59 (compound concentration: 10 uM).

For the compound `Cc1ccc(-c2cc(C(F)(F)F)nn2-c2ccc(S(N)(=O)=O)cc2)cc1` [Celecoxib], the TEAD-luciferase reporter activity (compound concentration: 2 uM) is inactive: 0.674.

Regarding `Cc1ccc(-c2cc(C(F)(F)F)nn2-c2ccc(S(N)(=O)=O)cc2)cc1` [celecoxib], the TEAD-luciferase reporter activity (compound concentration: 2 uM) was inactive: -1.14.

On to `CC(C)NCC1CCc2cc(CO)c([N+](=O)[O-])cc2N1` (centres undefined) [Oxamniquine], for which the TEAD-luciferase reporter activity reads like this: (compound concentration: 200 nM) inactive: -0.365; (compound concentration: 2 uM) inactive: 2.28; (compound concentration: 10 uM) inactive: 0.829.

With `O=C(O)c1cnc(Nc2cccc(Cl)c2)nc1C(F)(F)F`, the TEAD-luciferase reporter activity by setting is: (compound concentration: 200 nM) inactive: 0.143; (compound concentration: 2 uM) inactive: 0.552; (compound concentration: 10 uM) inactive: -1.07.

Regarding `O=C(O)COc1c(F)cc(SCCNS(=O)(=O)c2ccc(Cl)cc2)cc1F`, the TEAD-luciferase reporter activity runs as follows: (compound concentration: 200 nM) inactive: -0.466; (compound concentration: 2 uM) inactive: 0.63; (compound concentration: 10 uM) inactive: 0.555.

Regarding `CC(C)COC(=O)OCN1C(=O)CN(CCN2CC(=O)N(COC(=O)OCC(C)C)C(=O)C2)CC1=O` [Sobuzoxane], the TEAD-luciferase reporter activity (compound concentration: 200 nM) was inactive: 0.499, the TEAD-luciferase reporter activity (compound concentration: 2 uM) is inactive: 1.68 and the TEAD-luciferase reporter activity (compound concentration: 10 uM) was inactive: 1.

Take `CCCCCCCCOc1ccc(NC(=O)C(C)(N)CO)cc1` (centres undefined): the TEAD-luciferase reporter activity is inactive: -0.177 (compound concentration: 200 nM), inactive: -0.756 (compound concentration: 2 uM) and inactive: 1.71 (compound concentration: 10 uM).

As to `CCCCCCSc1nsnc1C1=CCCN(C)C1` [Tazomeline], the TEAD-luciferase reporter activity runs as follows: (compound concentration: 200 nM) inactive: -0.604; (compound concentration: 2 uM) inactive: 1.53; (compound concentration: 10 uM) inactive: 4.12.

The record behind these values is the supplement of paper PMC10735217.
